Results from patent US20050170019A1, “Methods, compositions and devices for inducing stasis in cells” (Fred Hutchinson Cancer Research Center, priority 2003, published 2005).
At least one compound was matched to its structure with a doubt left.

Experiments:
mice [1] = assay: H2S protects mice from hypoxia; format: in vivo, mouse
mice [2] = assay: Visual observation of breathing of mice administered H2S; format: in vivo, mouse; conditions: 80 ppm
Source text: The different parameters of stasis (reduction in oxygen consumption, decrease in carbon dioxide production or decrease in motility) can be assessed by a variety of assays and techniques. […] Indeed, this encompasses all three parameters in that it is indicative of decreased oxygen consumption, carbon dioxide production and motility. A normal mouse in room air at standard conditions will take approximately 200 breaths per minute. […] Thus, this represents at least about a 1-20-fold decrease in cellular respiration (i.e, oxygen consumption and carbon dioxide production).
During the experiment, the mouse was visually observed and its movements were recorded by web camera, and telemetry measurements were recorded as described above. […] At the end of an approximately six-hour period, heat was applied to the cabinet by setting the cabinet temperature to 25° C. […] After the cabinet was warmed, weak respiration was observed when the core body temperature of the mouse achieved 14° C. […] Normal movement and respiration were fully apparent when the core body temperature returned to 25° C.

Q: With `S` [hydrogen sulfide, Hydrogen sulfide] as the compound, how does the “condition when tested 24 hours later” value (mice [1]; mice after H2S and 4% oxygen) read?
A: Its value is “viable and normally responsive”.

Q: What about the “period of viability in 4% oxygen” value (mice [1]; mice, H2S administered during hypoxia) of the same compound?
A: Its value is “up to an hour”.

Q: And the “viability in 4% oxygen” value (mice [1]; mice, H2S administered during hypoxia and until return to 21% O2)?
A: The value was “remain viable”.

Q: And the “condition 3 weeks later” value (mice [1]; mouse after 80 ppm and 11 minutes of 5.2% oxygen)?
A: The value was “still doing well”.

Q: And the “survival of 11 minutes of 5.2% oxygen” value (mice [1]; one mouse, pre-equilibrated to 80 ppm for 3 hours)?
A: Its value is “survived”.

Q: What about the “respiration rate by visual observation” value (mice [2]; cabinet 10.5° C., for approximately one hour and fifteen minutes) of the same compound?
A: Its value is “undetectable rate”.

Q: What about the “period without a breath” value (mice [2]; one mouse, core temperature 15° C.) of the same compound?
A: The value was “did not take a breath for a period greater than an hour”.
